Experimental data published in PMC6237358.
No constants are given. Whether binding was seen depends on the method and setting. Binding seen in cells or lysates may run through a third protein. Where a sequence is shown, tags or fusion partners need not be part of it.

Protein sequences, listed by entry. Tags and fused reporters are not part of them.
UniProt Q92878: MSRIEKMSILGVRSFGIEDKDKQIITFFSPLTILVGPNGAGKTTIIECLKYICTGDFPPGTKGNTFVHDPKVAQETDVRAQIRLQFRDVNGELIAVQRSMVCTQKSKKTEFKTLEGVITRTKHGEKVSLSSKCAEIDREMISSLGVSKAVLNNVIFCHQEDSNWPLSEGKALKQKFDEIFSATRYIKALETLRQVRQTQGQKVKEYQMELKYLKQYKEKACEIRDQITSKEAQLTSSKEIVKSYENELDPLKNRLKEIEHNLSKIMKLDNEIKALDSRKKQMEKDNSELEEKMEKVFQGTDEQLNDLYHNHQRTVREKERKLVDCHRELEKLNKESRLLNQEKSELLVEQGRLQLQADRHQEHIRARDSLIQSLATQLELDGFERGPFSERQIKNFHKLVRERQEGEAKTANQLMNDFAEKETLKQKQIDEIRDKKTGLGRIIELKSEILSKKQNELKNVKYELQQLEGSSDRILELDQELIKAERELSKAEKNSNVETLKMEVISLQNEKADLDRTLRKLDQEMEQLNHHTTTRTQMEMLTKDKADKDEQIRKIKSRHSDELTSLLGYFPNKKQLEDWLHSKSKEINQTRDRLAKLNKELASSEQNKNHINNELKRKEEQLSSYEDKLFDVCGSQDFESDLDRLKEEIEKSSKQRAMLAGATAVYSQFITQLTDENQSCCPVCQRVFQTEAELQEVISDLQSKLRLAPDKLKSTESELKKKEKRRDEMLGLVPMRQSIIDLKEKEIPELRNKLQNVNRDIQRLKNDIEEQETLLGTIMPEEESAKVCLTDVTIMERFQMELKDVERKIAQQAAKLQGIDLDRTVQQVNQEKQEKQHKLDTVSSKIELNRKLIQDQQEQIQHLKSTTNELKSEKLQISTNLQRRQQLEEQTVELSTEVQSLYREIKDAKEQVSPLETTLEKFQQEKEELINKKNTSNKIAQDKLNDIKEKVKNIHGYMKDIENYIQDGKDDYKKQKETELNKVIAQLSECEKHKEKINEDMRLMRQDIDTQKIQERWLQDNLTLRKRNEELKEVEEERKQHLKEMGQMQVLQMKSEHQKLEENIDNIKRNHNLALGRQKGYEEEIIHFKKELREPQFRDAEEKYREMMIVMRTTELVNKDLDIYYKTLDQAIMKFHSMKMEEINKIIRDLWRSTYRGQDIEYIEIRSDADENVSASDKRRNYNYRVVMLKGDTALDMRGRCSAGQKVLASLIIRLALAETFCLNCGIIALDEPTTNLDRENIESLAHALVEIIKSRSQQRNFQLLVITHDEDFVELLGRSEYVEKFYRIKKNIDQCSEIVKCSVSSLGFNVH

Molecular target: T1, Flag-tagged Xrs2 (codon optimised synthetic XRS2) (S. cerevisiae) (UniProt P33301)
T1 sequence: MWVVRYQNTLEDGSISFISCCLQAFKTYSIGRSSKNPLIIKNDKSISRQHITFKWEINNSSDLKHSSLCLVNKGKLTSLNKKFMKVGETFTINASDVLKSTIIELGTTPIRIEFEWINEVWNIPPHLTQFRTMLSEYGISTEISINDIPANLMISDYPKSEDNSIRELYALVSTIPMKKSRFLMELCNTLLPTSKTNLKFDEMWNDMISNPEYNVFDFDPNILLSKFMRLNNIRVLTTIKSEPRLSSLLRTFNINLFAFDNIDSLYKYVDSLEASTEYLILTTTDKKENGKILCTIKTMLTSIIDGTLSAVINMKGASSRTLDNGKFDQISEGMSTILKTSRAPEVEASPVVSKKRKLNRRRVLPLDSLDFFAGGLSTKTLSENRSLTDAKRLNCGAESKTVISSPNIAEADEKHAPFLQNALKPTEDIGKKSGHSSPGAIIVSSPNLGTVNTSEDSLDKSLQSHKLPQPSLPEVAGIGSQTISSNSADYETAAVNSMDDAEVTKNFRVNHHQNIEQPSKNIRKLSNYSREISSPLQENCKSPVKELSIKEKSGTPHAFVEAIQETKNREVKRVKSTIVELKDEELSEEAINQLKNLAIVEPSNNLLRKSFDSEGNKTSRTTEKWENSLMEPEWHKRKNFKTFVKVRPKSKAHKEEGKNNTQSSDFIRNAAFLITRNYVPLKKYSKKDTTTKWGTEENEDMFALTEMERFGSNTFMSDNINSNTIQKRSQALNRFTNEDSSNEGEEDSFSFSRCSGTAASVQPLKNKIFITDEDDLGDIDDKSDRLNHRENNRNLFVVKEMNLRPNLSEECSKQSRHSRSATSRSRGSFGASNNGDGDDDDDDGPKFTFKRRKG
Assay: co-IP; lysates of transfected HEK293 cells (50 mM Tris-HCl pH 7.5, 150 mM NaCl, 5 mM EDTA, 0.3% Triton X-100) precipitated with Flag antibody and Dynabeads Protein G for 3 h, washed four times; immunoblot for MRE11 and RAD50

In the case of RAD50 (from UniProt Q92878 1-1312), the binding was “no binding”.
